PMC11106739 (ACS Chemical Biology, 2024)

test: general procedure: Fmoc solid-phase peptide synthesis; preloaded Wang resin (Fmoc-Ala-Wang 0.29 mmol/g) or 2-chlorotrityl chloride (CTC) resin; Fmoc-Ala-CTC resin (0.68 mmol/g); HATU/DIPEA (automated); details: whole synthesis, overall, scale 0.25 mmol

| Substance | isolated yield [%] |
| --- | --- |
| Oct-TriD | 51 |

test: general procedure: Fmoc solid-phase peptide synthesis; Fmoc-Ala-CTC resin; HATU/DIPEA (automated); details: whole synthesis, overall, scale 0.05 mmol

| Substance | isolated yield [%] |
| --- | --- |
| Oct-Ala9 | 11 |
| Oct-Dab9 | 12 |
| Oct-Glu9 | 12 |
| Oct-Gly9 | 10 |
| Oct-His9 | 16 |
| Oct-Ile9 | 16 |
| Oct-Ser9 | 16 |
| Oct-Tyr9 | 16 |
| Oct-Val9 | 11 |

test: general procedure: Fmoc solid-phase peptide synthesis; Fmoc-Ala-Wang resin; HATU/DIPEA (automated); details: whole synthesis, overall, scale 0.25 mmol

| Substance | isolated yield [%] |
| --- | --- |
| Oct-TriA1 | 19 |
| Oct-TriA5 | 23 |
